As usually defined, the IC50 is the point on the concentration scale where inhibition reaches its midpoint.

A number of entries come with more than one value. The list is limited to them. There may be further records. Values that stand side by side differ for a reason that is not stated; dose, time, organism, isomer or construct need not be as stated for each record.

The record followed here is US7276519B2, “Thieno[3,2-b]pyridine-6-carbonitriles and thieno[2,3-b]pyridine-5-carbonitriles as protein kinase inhibitors” (Wyeth, priority 2002, dated 2007).

In this test the test system is Rat2 fibroblasts stably transformed with v-Src/Hu c-Src fusion gene. Briefly: Anchorage independent Src-transformed fibroblast proliferation assay. In kind it is cell-based, rat. The conditions noted are these: read-out: Src Cells IC50 μM or % inhib at 10 μM (IC50 values); Table 3.

As to `COc1cc(Nc2c(C#N)cnc3cc(-c4ccc(CN5C[C@H](C)NC[C@H]5C)cc4)sc23)c(Cl)cc1Cl` [Example 114, 7-[(2,4-dichloro-5-methoxyphenyl)amino]-2-(4{[(2R,5S)-2,5-dimethylpiperazin-1-I]methyl}phenyl)thieno[3,2-b]pyridine-6-carbonitrile], the IC50 was 598 nM and 245 nM.
